Measurements: US20040018550A1
No constants are given. Whether binding was seen depends on the method and setting. Some binding calls cover weakened binding; strength is not graded here.

By UniProt entry, the sequences of proteins in these tests, tags left out.
UniProt P62834: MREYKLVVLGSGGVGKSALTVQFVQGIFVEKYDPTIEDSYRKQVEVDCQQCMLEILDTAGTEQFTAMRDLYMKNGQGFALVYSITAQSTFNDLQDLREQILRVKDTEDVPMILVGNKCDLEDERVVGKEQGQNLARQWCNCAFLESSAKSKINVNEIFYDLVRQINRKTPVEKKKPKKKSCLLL

Biological target: pEG202-K-rev bait (LexA-K-rev-1) (UniProt P62834)
Test: yeast interaction trap, LEU2 and LacZ reporters

- binding: binds
B1: Krit1 (protein, UniProt O00522 208-736, looked up)
chain: MGYSALEIKSKMLALEKADTCIYNPLFGSDLQYTNRVDKVVINPYFGLGAPDYSKIQIPKQEKWQRSMSSVTEDKERQWVDDFPLHRSACEGDSELLSRLLSERFSVNQLDSDHWAPIHYACWYGKVEATRILLEKGKCNPNLLNGQLSSPLHFAAGGGHAEIVQILLNHPETDRHITDQQGRSPLNICEENKQNNWEEAAKLLKEAINKPYEKVRIYRMDGSYRSVELKHGNNTTVQQIMEGMRLSQETQQYFTIWICSENLSLQLKPYHKPLQHVRDWPEILAELTNLDPQRETPQLFLRRDVRLPLEVEKQIEDPLAILILFDEARYNLLKGFYTAPDAKLITLASLLLQIVYGNYESKKHKQGFLNEENLKSIVPVTKLKSKAPHWTNRILHEYKNLSTSEGVSKEMHHLQRMFLQNCWEIPTYGAAFFTGQIFTKASPSNHKVIPVYVGVNIKGLHLLNMETKALLISLKYGCFMWQLGDTDTCFQIHSMENKMSFIVHTKQAGLVVKLLMKLNGQLMPTERNS
